“Also recorded” adds a separate entry of the source.
Test system: primary mouse keratinocytes
Assay: Cornified envelope (cross-linked protein) assay, primary mouse keratinocytes
Type: cell-based
Details: LTB 2 and HPB 2 at 100 μM; MC 75 or 1000 μM or staurosporine 10 nM; 48 hours
Method: FIGS. 3A and 3B. A: Time course for cornification of primary mouse keratinocytes in response to MC. Boxes represent […] Ca^2+, triangles represent 100 μM MC, 1.4 mM Ca^2+, and solid circles represent 1 mM MC, 1.4 mM Ca^2+. […] Cells were incubated in medium with 1.4 mM Ca^2+ and MC for 4 hours, then were incubated with MTT (0.5 mg/ml in medium) for a further 4 hours before determination of formazan production.
Primary mouse keratinocytes were isolated from BALB/c newborn mouse skin. […]
The assay measures insoluble cross-linked protein envelopes as described (Hough-Monroe et al. Analytical biochem., 199, 25-28, 1991), with modifications as follows. […] Absorbance of eluate was measured on a Titertek plate reader at 600 nm.
Cells were seeded at low density and were treated with MC for 3 days. Cells were then counted and increase in cell number was compared to untreated controls, or cells were processed for cross-linked protein.
Inhibitors were added 30 mins before MC or stsp (FIG. 6). Cross-linked protein was measured by the cornified envelope assay, described in Example 2.

## CN[C@@H]1C[C@H]2O[C@@](C)([C@@H]1OC)n1c3ccccc3c3c4c(c5c6ccccc6n2c5c31)C(=O)NC4 [staurosporine, reference compound]
  effect of transglutaminase inhibitors on cross-linking activity: as is the activity of staurosporine; also recorded: unlike that induced by the kinase inhibitor staurosporine

— US5610185A, “Method for the treatment of hyperproliferative epithelial skin diseases by topical application of hydroxylated aromatic protein cross-linking compounds” (The United States of America as represented by the …, priority 1995, dated 1997)
